Experimental data reported in PubChem BioAssay AID248 (DTP/NCI, 2004).
The list does not hold the whole screen: it gathers tests that were run many times, whatever their T/C, doses with no T/C, and many T/C values between a quarter and a half above the control. Other doses and runs of a compound stand elsewhere. T/C is the treated group as % of the vehicle group. Some doses have a count of surviving animals in place of a T/C: the source files T/C as zero there, which appears to mark a toxic dose or a test without result, not a measured value. Some survivor counts are full or nearly so, which does not show that the dose was tolerated: the source hardly ever lists a survival T/C far under the control, and the zero likely stands for such cases as well. Survivors were counted at the toxicity check, usually on the fifth day, unless a day is given; later deaths do not show. Schedules are NCI's codes, read here as Q, the interval in days (D) or hours (H), X, the number of doses. Some schedule codes hold Z or #, which are not explained here. Some doses were run more than once; the results are listed from low to high. For survival time, the PubChem record calls one and a half times the control and up active, and a quarter to a half above the control has no call in these data; cut-offs in other NCI protocols can differ.

Tested on: L1210 leukemia ip in BDF1 mice, survival T/C
Test: NCI In Vivo Anticancer Drug Screen. Data for tumor model L1210 Leukemia (intraperitoneal) in B6D2F1 (BDF1) mice
Conditions: T/C endpoint: mean survival time, higher T/C = longer survival
[1] = dose: 300.0 mg/kg/injection, schedule: Q01DX001 (ip), vehicle: saline
[2] = dose: 200.0 mg/kg/injection, schedule: Q04DX003 (ip), vehicle: saline with Tween-80
[3] = dose: 400.0 mg/kg/injection, schedule: Q04DX003 (ip), vehicle: Klucel (hydroxypropylcellulose) (HPC)

For `CCCCCCC(C)C(COC(=O)c1ccc([N+](=O)[O-])cc1)NCC` (centres undefined), which survivor count [1] is on record?
The survivor count was 3 of 6.

What does the source list for `O=C(C[n+]1ccccc1)N/N=C/c1ccc([N+](=O)[O-])s1`?
survivor count (dose: 50.0 mg/kg/injection, schedule: Q01DX009 (ip), vehicle: water): 3 of 6; survivor count (dose: 100.0 mg/kg/injection, schedule: Q04DX003 (ip), vehicle: water): 3 of 6; survivor count (dose: 200.0 mg/kg/injection, schedule: Q04DX003 (ip), vehicle: water): 0 of 6; survivor count (dose: 400.0 mg/kg/injection, schedule: Q04DX003 (ip), vehicle: water): 0 of 6

What does the source list for `CC1OC2CC(=O)OC2C2=C1C(=O)c1c(O)c3c(c(O)c1C2=O)C1CC(O)C3(O)C(C)O1` (centres undefined)?
survivor count (dose: 3.2 mg/kg/injection, schedule: Q01DX Z (ip), vehicle: saline): 6 of 6; survivor count (dose: 24.0 mg/kg/injection, schedule: Q01DX Z (ip), vehicle: saline): 2 of 6; survivor count (dose: 48.0 mg/kg/injection, schedule: Q01DX Z (ip), vehicle: saline): 0 of 6; survivor count (dose: 80.0 mg/kg/injection, schedule: Q01DX001 (ip), vehicle: saline): 0 of 6; survivor count (dose: 96.0 mg/kg/injection, schedule: Q01DX Z (ip), vehicle: saline): 0 of 6

How did the survivor count (dose: 200.0 mg/kg/injection, schedule: Q04DX003 (ip), vehicle: saline sonified) turn out when `O=C(O)c1c(Cl)c(Cl)c(Cl)c(Cl)c1C(=O)O.O=C(O)c1c(Cl)c(Cl)c(Cl)c(Cl)c1C(=O)O.[Pt]` was run?
Its survivor count is 2 of 6.

What about the survivor count (dose: 400.0 mg/kg/injection, schedule: Q04DX003 (ip), vehicle: saline sonified) of the same compound?
Its survivor count is 1 of 6.

How did the survivor count (dose: 100.0 mg/kg/injection, schedule: Q04DX003 (sc), vehicle: steroid suspending solution) turn out when `CC1CC(O)C(=O)C(O[C@@H]2C[C@@H]3CC[C@@H]4[C@H](CC[C@]5(C)C(C6=CC(=O)OC6)CC[C@]45O)[C@@]3(C=O)C[C@H]2O)O1` (some centres undefined) was run?
Its survivor count is 0 of 6.

And the survivor count (dose: 200.0 mg/kg/injection, schedule: Q04DX003 (sc), vehicle: steroid suspending solution)?
The survivor count was 0 of 6.

And the survivor count (dose: 400.0 mg/kg/injection, schedule: Q04DX003 (sc), vehicle: steroid suspending solution)?
Its survivor count is 0 of 6.

`C=C(C)COC(=O)Nc1cccc(O)c1` was tested. Which survivor count (dose: 400.0 mg/kg/injection, schedule: Q01DX001 (ip), vehicle: saline + alcohol) did it give?
The survivor count was 3 of 6.

Which results are given for `Cc1cccc2c(CBr)cc(=O)[nH]c12`?
survivor count (dose: 100.0 mg/kg/injection, schedule: Q04DX003 (ip), vehicle: saline with Tween-80): 3 of 6; survivor count [2]: 0 of 6; survivor count (dose: 400.0 mg/kg/injection, schedule: Q04DX003 (ip), vehicle: saline with Tween-80): 0 of 6

`CCN=C(N)c1ccc(NC(=O)c2ccc(C(=O)Nc3ccc(C(N)=NCC)cc3)cc2)cc1` was tested. Which survivor count (dose: 4.0 mg/kg/injection, schedule: Q01DX Z (ip), vehicle: other) did it give?
The survivor count was 6 of 6.

And the survivor count (dose: 8.0 mg/kg/injection, schedule: Q01DX Z (ip), vehicle: other)?
Its survivor count is 4 of 6.

And the survivor count (dose: 16.0 mg/kg/injection, schedule: Q01DX Z (ip), vehicle: carboxymethylcellulose (CMC))?
Its survivor count is 6 of 6.

What about the survivor count (dose: 31.0 mg/kg/injection, schedule: Q01DX Z (ip), vehicle: carboxymethylcellulose (CMC)) of the same compound?
Its survivor count is 5 of 6.

And the survivor count (dose: 62.0 mg/kg/injection, schedule: Q01DX Z (ip), vehicle: carboxymethylcellulose (CMC))?
The survivor count was 0 of 6 and 1 of 6.

And the survivor count (dose: 125.0 mg/kg/injection, schedule: Q01DX Z (ip), vehicle: carboxymethylcellulose (CMC))?
Its survivor count is 0 of 6.

And the survivor count (dose: 250.0 mg/kg/injection, schedule: Q01DX Z (ip), vehicle: carboxymethylcellulose (CMC))?
The survivor count was 0 of 6.

And the survivor count (dose: 500.0 mg/kg/injection, schedule: Q01DX Z (ip), vehicle: carboxymethylcellulose (CMC))?
Its survivor count is 0 of 6.

Which results are given for `CCCCCCCCCCCCCCCCCC[Se][Se]CCCCCCCCCCCCCCCCCC`?
survivor count (dose: 50.0 mg/kg/injection, schedule: Q01DX009 (ip), vehicle: saline with Tween-80): 6 of 6; survivor count (dose: 100.0 mg/kg/injection, schedule: Q01DX009 (ip), vehicle: saline with Tween-80): 6 of 6; survivor count [2]: 6 of 6

How did the survivor count [3] turn out when `Brc1ncc2ccccc2c1Br` was run?
The survivor count was 2 of 6.

`O=Nc1ccc(O)cc1Cl` was tested. Which survivor count (dose: 200.0 mg/kg/injection, schedule: Q01DX001 (ip), vehicle: Klucel (hydroxypropylcellulose) (HPC)) did it give?
Its survivor count is 3 of 3.

With `O=C(O)/C=C/c1ccc([N+](=O)[O-])s1` as the compound, how does the survivor count (dose: 400.0 mg/kg/injection, schedule: Q04DX002 (ip), vehicle: Klucel (hydroxypropylcellulose) (HPC)) read?
Its survivor count is 0 of 3.

`CCN(CC)N=Nc1ccccc1-c1nc(N)c2ccccc2n1` was tested. Which survivor count [3] did it give?
The survivor count was 1 of 6.

`O=C(COc1ccc(Cl)c(Cl)c1)NCc1ccc[n+](Cc2cccc(Cl)c2S(=O)(=O)F)c1` was tested. Which survivor count (dose: 200.0 mg/kg/injection, schedule: Q04DX003 (ip), vehicle: saline) did it give?
The survivor count was 2 of 6.

And the survivor count (dose: 400.0 mg/kg/injection, schedule: Q04DX003 (ip), vehicle: saline)?
The survivor count was 0 of 6.

Which results are given for `CCC1N=C(N)N=C(N)N1c1ccc(Cl)cc1` (centres undefined)?
survivor count (dose: 75.0 mg/kg/injection, schedule: Q04DX002 (ip), vehicle: saline with Tween-80): 0 of 3; survivor count (dose: 150.0 mg/kg/injection, schedule: Q04DX002 (ip), vehicle: saline with Tween-80): 0 of 3; survivor count [1]: 0 of 6; survivor count (dose: 300.0 mg/kg/injection, schedule: Q04DX002 (ip), vehicle: saline with Tween-80): 0 of 3

With `Fc1cccc(N2CCOCC2)c1` as the compound, how does the survivor count (dose: 400.0 mg/kg/injection, schedule: Q01DX001 (ip), vehicle: saline) read?
Its survivor count is 2 of 4.

How did the survivor count [3] turn out when `C=C(Cl)CNC(=O)c1ccc([N+](=O)[O-])cc1` was run?
Its survivor count is 1 of 6.

Which results are given for `O=NN(CCCl)C(=O)NCCc1cccc[n+]1[O-]`?
T/C (dose: 50.0 mg/kg/injection, schedule: Q01DX001 (ip), vehicle: water): 128 % of control; survivor count (dose: 100.0 mg/kg/injection, schedule: Q01DX001 (ip), vehicle: water): 6 of 6
